Laboratory results reported in the supplement of paper PMC9938546.
Where a name gives a salt, the structure may show the parent alone. Some of the results follow. Part of the spread comes from offsets between plates or batches.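 HCT116-GFP, a KRAS-mutant, microsatellite-unstable human colorectal cancer line, constantly expresses green fluorescent protein; immune cells were from healthy donors. Cancer cell survival was tracked by live-cell imaging of green fluorescence, and activated immune cells by themselves reduced survival to roughly half.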

The molecules below were run on HCT116-GFP (assay: HCT116-GFP viability (GFP intensity) relative to untreated HCT116-GFP monoculture control, co-culture with activated PBMCs; higher = less cancer cell killing). Conditions: culture: co-culture with anti-CD3/IL2 activated PBMCs 1:1; 10 µM; 72 h.

Compound | HCT116-GFP viability [%]
C[C@H](CCC(=O)O)[C@H]1CC[C@H]2[C@@H]3C(=O)C[C@@H]4CC(=O)CC[C@]4(C)[C@H]3CC(=O)[C@]12C [Dehydrocholic acid] | 48.6
CCOC(=O)C1=C(C)NC(C)=C(C(=O)OC)C1c1cccc(Cl)c1Cl (stereo not given) [Felodipine] | 38.8
O=C1c2c(O)ccc(O)c2C(=O)c2c(NCCNCCO)ccc(NCCNCCO)c21 [Mitoxantrone dihydrochloride] | 1.4
NNC(=O)c1ccncc1 [Isoniazid] | 37.2
CC1(C)O[C@@H]2C[C@H]3[C@@H]4C[C@H](F)C5=CC(=O)CC[C@]5(C)[C@H]4[C@@H](O)C[C@]3(C)[C@]2(C(=O)CO)O1 [Flurandrenolide] | 91.1
CCCCc1oc2ccccc2c1C(=O)c1cc(I)c(OCCN(CC)CC)c(I)c1 [Amiodarone hydrochloride] | 40.4
O=C(O)c1cccnc1 [Niacin] | 67.2
Cc1cccc(N(C)C(=S)Oc2ccc3ccccc3c2)c1 [Tolnaftate] | 62.1
O=c1[nH]c(=O)n([C@H]2C[C@H](O)[C@@H](CO)O2)cc1I [Idoxuridine] | 24.6
COc1ccc(-c2ccc3cc(C(=O)O)ccc3c2)cc1C12CC3CC(CC(C3)C1)C2 [Adapalene] | 3
CCN1CCCC1CNC(=O)c1cc(S(N)(=O)=O)ccc1OC (stereo not given) [Sulpiride] | 47.9
CC12CC3CC(C)(C1)CC(N)(C3)C2 [Memantine Hydrochloride] | 54.3
C#C[C@]1(O)CC[C@H]2[C@@H]3CCC4=Cc5oncc5C[C@]4(C)[C@H]3CC[C@@]21C [Danazol] | 50.1
CCOc1ccc(Cc2nccc3cc(OCC)c(OCC)cc23)cc1OCC [Ethaverine hydrochloride] | 35.2
O=C(Nc1ccc([N+](=O)[O-])cc1Cl)c1cc(Cl)ccc1O [Niclosamide] | 2.33
CN1CCCN=C1/C=C/c1cccs1 [Pyrantel tartrate] | 26.1
CCN(CC)CCN[C@@H](C(=O)OCCC(C)C)c1ccccc1 [Camylofine chlorhydrate] | 37.8
CCC[C@@H]1C[C@@H](C(=O)N[C@@H]([C@H]2O[C@H](SC)[C@H](O)[C@@H](O)[C@H]2O)[C@@H](C)O)N(C)C1 [Lincomycin hydrochloride] | 43.5
CC(C)(C)NC(=O)[C@H]1CC[C@H]2[C@@H]3CC[C@H]4NC(=O)C=C[C@]4(C)[C@H]3CC[C@]12C [Finasteride] | 77
Nc1nc(N)c2nc(-c3ccccc3)c(N)nc2n1 [Triamterene] | 41.8

3 entries from above, sorted by number of heavy atoms, smallest number first.
Compound | HCT116-GFP viability [%]
C#C[C@]1(O)CC[C@H]2[C@@H]3CCC4=Cc5oncc5C[C@]4(C)[C@H]3CC[C@@]21C [Danazol] | 50.1
CC(C)(C)NC(=O)[C@H]1CC[C@H]2[C@@H]3CC[C@H]4NC(=O)C=C[C@]4(C)[C@H]3CC[C@]12C [Finasteride] | 77
O=C1c2c(O)ccc(O)c2C(=O)c2c(NCCNCCO)ccc(NCCNCCO)c21 [Mitoxantrone dihydrochloride] | 1.4

The results go on:

Compound | HCT116-GFP viability [%]
C=C1C(=O)O[C@H]2[C@H]1CC/C(C)=C/CC[C@@]1(C)O[C@@H]21 [Parthenolide] | 0.284
CCCCOc1ccc(C(=O)CCN2CCCCC2)cc1 [Dyclonine hydrochloride] | 50.4
CC(C)(C)CC(C)(C)c1ccc(OCCOCC[N+](C)(C)Cc2ccccc2)cc1 [Benzethonium chloride] | 25.2
Cn1nnc2c(C(N)=O)ncn2c1=O [Temozolomide] | 39.1
OC(CCN1CCCC1)(c1ccccc1)C1CCCCC1 (stereo not given) [Procyclidine hydrochloride] | 71.5
CC(C)NCC(O)COc1cccc2[nH]ccc12 (stereo not given) [Pindolol] | 45.1
CC(CN(C)C)CN1c2ccccc2CCc2ccccc21 (stereo not given) [Trimipramine maleate salt] | 65.5
CC(C)C(=O)c1c(C(C)C)nn2ccccc12 [Ibudilast] | 41.8
NCCc1ccc(O)c(O)c1 [Dopamine hydrochloride] | 20.9
CC1(C)O[C@@H]2C[C@H]3[C@@H]4C[C@H](F)C5=CC(=O)C=C[C@]5(C)[C@H]4[C@@H](O)C[C@]3(C)[C@]2(C(=O)CO)O1 [Flunisolide] | 106
C[C@H](CS)C(=O)N1CCC[C@H]1C(=O)O [Captopril] | 43.5
CN(Cc1cc(Br)cc(Br)c1N)C1CCCCC1 [Bromhexine hydrochloride] | 38.7
Cc1c(Nc2ncccc2C(=O)O)cccc1C(F)(F)F [Flunixin meglumine] | 84.4
CC[C@H](c1ccc(O)cc1)[C@@H](CC)c1ccc(O)cc1 [Hexestrol] | 68.2
CCCCCCNC(=O)n1cc(F)c(=O)[nH]c1=O [Carmofur] | 1.39
CCCOc1ccccc1-c1nc2[nH]nnc2c(=O)[nH]1 [Zaprinast] | 33.8
COc1ccc(Cl)cc1C(=O)NCCc1ccc(S(=O)(=O)NC(=O)NC2CCCCC2)cc1 [Glibenclamide] | 53.3
Nc1nc(=O)n([C@@H]2CS[C@H](CO)O2)cc1F [(-)-Emtricitabine] | 36.1
CC#C[C@]1(O)CC[C@H]2[C@@H]3CCC4=CC(=O)CCC4=C3[C@@H](c3ccc(N(C)C)cc3)C[C@@]21C [Mifepristone] | 38.3
CC(C(O)c1ccc(O)cc1)N1CCC(Cc2ccccc2)CC1 (stereo not given) [Ifenprodil tartrate] | 51.2
